The results in this text go back to patent US10653717B2, “Antibiotic compositions” (priority 2016, dated 2020).

Experiment [1] has as its system KP-1: Klebsiella pneumonia subsp. pneumonia 13#. The experiment in a line: Drug sensitivity of clinical isolated strain. The class given is cell-based. The following applies: KP-1 (Table 3).
In experiment [2] the test system is KP-2: K. pneumonia subsp. pneumonia 0322#. Put plainly: Drug sensitivity of clinical isolated strain. The class given is cell-based, Klebsiella pneumonia.

Molecules are shown by their SMILES.
Also: key: R: resistant; S: sensitive.

In the case of `Nc1ccc(S(N)(=O)=O)cc1` [Sulfanilamide], the Drug sensitivity result is recorded as “S” in experiment [1], “R” in experiment [2] (KP-2 (Table 3)) and “R” in experiment [2] (KP-2 (table of Example 3)).
